Record: PubChem BioAssay AID1053208 (Peter MacCallum Cancer Centre, 2014)
The deposit covers about 17,000 reagents; shown is a part drawn at random. Over the whole deposit, 788 (4.7%) got an active call. 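Calls rest on z-score classes alone; an extra cut-off of viability at most 70% of control was not applied to them.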 Entries without a mark were called inactive. The numbers tell different reagents against one gene apart. Some reagents were tested in more than one well and are listed for each. Not all columns of the deposit are shown. Reagent sequences are not shown.

Assay: 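Genes whose silencing cuts survival of bone tumour cells only with doxorubicin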 (primary screen)
Cell system: mouse osteosarcoma cells, early-passage culture from an engineered mouse model of fibroblastic bone tumour
Knock-down reagent: siRNA pool against mouse genes, 40 nM
Timing: about 120 h (48 h before drug, then 72 h with drug)
Treatment: doxorubicin 100 nM for 72 h, roughly 30-40% inhibitory dose
Read-out: 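Viability read as ATP luminescence after 72 h of 100 nM doxorubicin or none, duplicate wells averaged, scaled to non-targeting siRNA, then expressed as robust z-scores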
Reading the numbers: viability z-score with doxorubicin: higher = more viable cells under doxorubicin; viability z-score without drug: higher = more viable cells with knock-down alone; z-score of drug to no-drug ratio: higher = less drug sensitisation by knock-down
Rule for the call: 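a pool counts as active when its viability z-score with doxorubicin is -2 or below and its z-score without drug lies between -2 and 2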

| gene knocked down | reagent no. | combined z-score class | viability z-score with doxorubicin | viability z-score without drug | z-score of drug to no-drug ratio |
| --- | --- | --- | --- | --- | --- |
| Kbtbd2 | 1 | no change with or without drug | -0.11 | 0.67 | -0.45 |
| Or51g2 | 1 | low cell count without drug only | -1.69 | -2.53 | 0.11 |
| Map2k2 | 1 | no change with or without drug | -0.56 | 0.84 | -1.01 |
| Cfi | 1 | no change with or without drug | 0.56 | -0.51 | 1.12 |
| Clasp2 | 1 | no change with or without drug | 0.9 | -0.17 | 1.24 |
| Dnah8 | 1 | no change with or without drug | -0.45 | 1.52 | -1.24 |
| Aspn | 1 | no change with or without drug | -1.69 | -0.84 | -1.12 |
| Cobll1 | 1 | no change with or without drug | 0.56 | 0.51 | 0.34 |
| Cavin2 | 1 | no change with or without drug | -1.12 | -0.51 | -0.79 |
| Rhoq | 1 | no change with or without drug | 0 | 1.69 | -0.9 |
| Cyb561d2 | 1 | no change with or without drug | 1.35 | -0.17 | 1.69 |
| Or5k14 | 1 | no change with or without drug | -0.67 | 1.35 | -1.46 |
| Or5k14 | 2 | no change with or without drug | -1.35 | 1.52 | -2.14 |
| Rgl2 | 1 | no change with or without drug | -0.11 | -0.67 | 0.45 |
| Retnla | 1 | no change with or without drug | 1.01 | -0.34 | 1.46 |
| Prdx5 | 1 | no change with or without drug | 0.9 | 1.35 | 0.11 |
| A830031A19Rik | 1 | no change with or without drug | 0.22 | 0.51 | 0 |
| Ighmbp2 | 1 | no change with or without drug | -1.69 | -0.51 | -1.35 |
| Skint2 | 1 | no change with or without drug | 0.67 | 1.01 | 0.11 |
| Atox1 | 1 | no change with or without drug | 0.22 | -1.18 | 1.24 |
| Casp7 | 1 | no change with or without drug | 1.91 | 1.01 | 1.35 |
| Hopx | 1 | no change with or without drug | 0.45 | 0.84 | 0 |
| Dcun1d1 | 1 | no change with or without drug | -1.8 | -1.85 | -0.56 |
| Mettl25 | 1 | no change with or without drug | 0.11 | 0.17 | 0.11 |
| Ugt2b38 | 1 | no change with or without drug | -0.11 | 0.17 | -0.11 |

Continued, starting with the last 5 of the part before.
| gene knocked down | reagent no. | combined z-score class | viability z-score with doxorubicin | viability z-score without drug | z-score of drug to no-drug ratio |
| --- | --- | --- | --- | --- | --- |
| Casp7 | 1 | no change with or without drug | 1.91 | 1.01 | 1.35 |
| Hopx | 1 | no change with or without drug | 0.45 | 0.84 | 0 |
| Dcun1d1 | 1 | no change with or without drug | -1.8 | -1.85 | -0.56 |
| Mettl25 | 1 | no change with or without drug | 0.11 | 0.17 | 0.11 |
| Ugt2b38 | 1 | no change with or without drug | -0.11 | 0.17 | -0.11 |
| Gorasp2 | 1 | no change with or without drug | -0.22 | -0.84 | 0.45 |
| Or6k14 | 1 | no change with or without drug | 1.57 | 0.84 | 1.12 |
| Syncrip | 1 | no change with or without drug | 0.79 | 1.18 | 0.11 |
| Msgn1 | 1 | low cell count with and without drug | -8.77 | -13.8 | 2.81 |
| Kng2 | 1 | no change with or without drug | -0.45 | 0 | -0.34 |
| Or52h9 | 1 | no change with or without drug | -1.12 | -0.51 | -0.79 |
| Or51e1 | 1 | no change with or without drug | 0.22 | 0.67 | -0.11 |
| Selenoo | 1 | no change with or without drug | 0.56 | 0.17 | 0.56 |
| Sgms1 | 1 | low cell count without drug only | -1.57 | -2.02 | -0.22 |
| Sox7 | 1 | no change with or without drug | 1.01 | -0.51 | 1.57 |
| Fancc | 1 | no change with or without drug | 0.67 | 0 | 0.79 |
| Lsg1 | 1 | low cell count without drug only | -0.9 | -2.02 | 0.67 |
| Nudt16 | 1 | no change with or without drug | -0.9 | 0.84 | -1.35 |
| Herc4 | 1 | no change with or without drug | 1.8 | 0.34 | 1.69 |
| Crmp1 | 1 | no change with or without drug | -0.34 | 0.17 | -0.34 |
| Junb | 1 | no change with or without drug | 0.22 | 1.35 | -0.56 |
| Acad10 | 1 | no change with or without drug | -0.79 | 1.01 | -1.35 |
| Acad10 | 1 | no change with or without drug | 0.22 | -1.35 | 1.35 |
| Gpr153 | 1 | no change with or without drug | -0.56 | -0.34 | -0.22 |
| Alg13 | 1 | no change with or without drug | -0.22 | 0.84 | -0.67 |
| Oprl1 | 1 | no change with or without drug | 0.22 | -0.17 | 0.45 |
| Cwf19l2 | 1 | no change with or without drug | 0.45 | -0.17 | 0.67 |
| Vamp3 | 1 | no change with or without drug | -0.56 | 0.17 | -0.56 |
| B4galt7 | 1 | high cell count with doxorubicin only | 2.7 | 1.52 | 1.69 |
| Lacc1 | 1 | no change with or without drug | -0.9 | -0.17 | -0.79 |
